Measurements reported in article PMC10341401.
Results are given in words; binding and its absence hold for the method and conditions named. In cells and extracts the contact can be indirect. Some binding calls cover weakened binding; strength is not graded here. For part of these data: Where a sequence is shown, tags or fusion partners need not be part of it. Blank lines part the entries; values can stand above or below the molecule they belong to.

The chains behind the UniProt entries cited, without tags or fusion partners.
UniProt O94817: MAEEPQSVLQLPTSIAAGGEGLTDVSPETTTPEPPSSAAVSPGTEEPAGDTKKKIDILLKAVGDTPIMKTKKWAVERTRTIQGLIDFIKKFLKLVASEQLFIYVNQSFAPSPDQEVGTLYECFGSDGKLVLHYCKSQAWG

Tests used:
[1] = target: T1, Flag-ARL6IP5 (ADP-ribosylation-like factor 6 interacting protein 5), overexpressed (UniProt O75915); experiment: co-IP; ARL6IP5 immunoprecipitated from lysate of cells overexpressing it for 24 h; 200 ug lysate protein, 2 ug primary antibody overnight at 4 C, protein-A agarose beads, washed with PBS; blots for ATG5 and ATG12
T1 sequence: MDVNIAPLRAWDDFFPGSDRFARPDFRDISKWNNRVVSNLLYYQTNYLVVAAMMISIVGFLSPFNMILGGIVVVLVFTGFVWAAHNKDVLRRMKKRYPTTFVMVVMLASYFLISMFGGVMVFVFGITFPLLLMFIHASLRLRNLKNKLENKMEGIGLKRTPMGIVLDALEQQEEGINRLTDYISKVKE

[2] = target: T2, basal ARL6IP5 (human (endogenous in SH-SY5Y)) (UniProt O75915); experiment: co-IP; basal ARL6IP5 expression level (no overexpression); cell lysate, protein-A agarose beads
T2 sequence: T1 sequence

[3] = target: ATG12 (human (endogenous in SH-SY5Y)) (UniProt O94817); experiment: co-IP; ATG12 immunoprecipitated from lysate of cells overexpressing Flag-ARL6IP5; flag-ARL6IP5 detected by blot; protein-A agarose beads

binding [1]: binds | binding [2]: binds
Molecule: ATG12 (from UniProt O94817 1-140)

binding [3]: binds
B1: Flag-ARL6IP5 (ADP-ribosylation-like factor 6 interacting protein 5), overexpressed (protein, UniProt O75915 1-188)
chain: T1 sequence
